From publication PMC8402715 (Viruses, 2021)

Tested on: FLUAV-infected RPE cells
Assay: Metabolomics of polar metabolites in media of FLUAV-infected RPE cells
Settings: infected RPE cells (FLUAV moi 1), 10 μM, 24 h

CC(C)c1c(C(=O)Nc2ccccc2)c(-c2ccccc2)c(-c2ccc(F)cc2)n1CC[C@@H](O)C[C@@H](O)CC(=O)O [Atorvastatin]
levels of many polar metabolites in the media: elevated

O=C(O)COCCN1CCN(C(c2ccccc2)c2ccc(Cl)cc2)CC1 (centres unmarked) [cetirizine]
levels of many polar metabolites in the media: elevated
